Source: paper PMC10805489
No constants are given. Whether binding was seen depends on the method and setting. In cells and extracts the contact can be indirect. Some binding calls cover weakened binding; strength is not graded here. Where a sequence is shown, tags or fusion partners need not be part of it. Blank lines part the entries; values can stand above or below the molecule they belong to.

Sequences of proteins named here, by UniProt entry; tags and fusion partners are left off.
UniProt Q99497: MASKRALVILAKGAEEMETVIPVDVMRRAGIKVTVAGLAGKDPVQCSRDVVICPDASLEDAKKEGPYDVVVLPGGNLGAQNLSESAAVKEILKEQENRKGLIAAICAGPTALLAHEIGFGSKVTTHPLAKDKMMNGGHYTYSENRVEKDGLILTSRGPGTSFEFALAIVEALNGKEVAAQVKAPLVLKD

Assays:
[1] = target: T1, FK506-binding protein 3 (FKBP3), FKBP3-flag (UniProt Q00688); experiment: co-IP; Flag tag or HA tag antibody coupled to AminoLink Plus Coupling Resin, incubated 2 h with RIPA lysate of DB cells transfected with oeFKBP3 and oePARK7; blots with HA or Flag tag antibody
T1 sequence: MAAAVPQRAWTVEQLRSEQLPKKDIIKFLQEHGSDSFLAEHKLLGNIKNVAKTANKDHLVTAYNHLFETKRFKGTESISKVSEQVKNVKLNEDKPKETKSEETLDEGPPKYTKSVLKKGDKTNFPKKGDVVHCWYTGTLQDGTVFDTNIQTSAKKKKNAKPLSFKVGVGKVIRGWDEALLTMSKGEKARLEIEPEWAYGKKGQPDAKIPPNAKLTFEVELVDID

[2] = target: parkinsonism associated deglycase (PARK7), PARK7-HA (UniProt Q99497); experiment: as above

binding [1]: binds
Molecule: parkinsonism associated deglycase (PARK7), PARK7-HA (from UniProt Q99497 1-189)

binding [2]: binds
B1: FK506-binding protein 3 (FKBP3), FKBP3-flag (protein, UniProt Q00688 1-224)
chain: T1 sequence
